Laboratory results published in the supplement of paper PMC10849652.
The other results are listed elsewhere or left out.

Protein sequences, listed by entry. Tags and fused reporters are not part of them. Lines headed by an entry give the natural chain unless they say otherwise; changes in a name come on top.
UniProt Q9BYE7: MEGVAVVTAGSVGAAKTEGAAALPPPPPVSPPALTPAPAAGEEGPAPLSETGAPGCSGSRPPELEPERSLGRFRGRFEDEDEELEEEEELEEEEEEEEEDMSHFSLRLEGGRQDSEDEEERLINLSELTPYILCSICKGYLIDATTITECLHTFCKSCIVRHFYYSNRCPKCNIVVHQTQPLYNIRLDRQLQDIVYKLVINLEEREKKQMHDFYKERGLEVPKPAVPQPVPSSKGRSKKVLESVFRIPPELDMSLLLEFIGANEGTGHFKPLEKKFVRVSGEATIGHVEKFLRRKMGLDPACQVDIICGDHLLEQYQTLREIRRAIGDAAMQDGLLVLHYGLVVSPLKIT
UniProt Q9BSM1: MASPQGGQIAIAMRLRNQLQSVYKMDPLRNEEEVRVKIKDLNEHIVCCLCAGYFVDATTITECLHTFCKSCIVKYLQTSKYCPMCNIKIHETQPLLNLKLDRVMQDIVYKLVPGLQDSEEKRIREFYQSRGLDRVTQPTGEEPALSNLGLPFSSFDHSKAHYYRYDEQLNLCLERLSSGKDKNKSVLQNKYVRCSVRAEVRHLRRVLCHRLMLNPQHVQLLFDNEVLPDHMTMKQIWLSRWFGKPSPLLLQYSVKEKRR
UniProt Q9NWS1: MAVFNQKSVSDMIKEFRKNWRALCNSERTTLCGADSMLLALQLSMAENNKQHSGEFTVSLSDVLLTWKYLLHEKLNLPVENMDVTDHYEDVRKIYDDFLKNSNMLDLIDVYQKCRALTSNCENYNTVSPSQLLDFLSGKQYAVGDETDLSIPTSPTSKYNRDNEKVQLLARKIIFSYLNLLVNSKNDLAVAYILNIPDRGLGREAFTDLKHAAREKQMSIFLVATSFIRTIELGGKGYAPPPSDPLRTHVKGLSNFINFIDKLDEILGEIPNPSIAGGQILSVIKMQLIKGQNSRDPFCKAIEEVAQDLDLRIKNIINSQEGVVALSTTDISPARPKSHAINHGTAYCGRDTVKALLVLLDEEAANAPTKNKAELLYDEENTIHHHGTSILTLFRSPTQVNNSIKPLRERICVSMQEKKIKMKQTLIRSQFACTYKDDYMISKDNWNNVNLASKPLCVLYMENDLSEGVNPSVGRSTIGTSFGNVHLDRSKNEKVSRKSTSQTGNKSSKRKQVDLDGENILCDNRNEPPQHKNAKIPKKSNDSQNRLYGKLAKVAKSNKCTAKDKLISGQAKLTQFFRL
UniProt Q9P0J1: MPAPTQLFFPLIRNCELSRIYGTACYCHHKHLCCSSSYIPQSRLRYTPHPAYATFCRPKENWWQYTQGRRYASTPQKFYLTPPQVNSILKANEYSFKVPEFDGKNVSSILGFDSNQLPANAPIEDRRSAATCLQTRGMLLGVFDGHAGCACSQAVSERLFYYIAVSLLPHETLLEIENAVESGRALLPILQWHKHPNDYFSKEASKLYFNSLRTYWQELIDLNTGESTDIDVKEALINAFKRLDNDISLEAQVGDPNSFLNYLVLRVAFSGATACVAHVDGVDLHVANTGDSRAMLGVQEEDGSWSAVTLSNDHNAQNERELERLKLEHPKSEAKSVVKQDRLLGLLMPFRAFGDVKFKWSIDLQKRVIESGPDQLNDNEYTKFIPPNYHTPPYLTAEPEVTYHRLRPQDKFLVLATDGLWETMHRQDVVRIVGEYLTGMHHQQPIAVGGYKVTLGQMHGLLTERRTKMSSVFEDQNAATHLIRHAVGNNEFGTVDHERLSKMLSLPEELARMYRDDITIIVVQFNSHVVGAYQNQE
UniProt Q86U86, whole entry, looked up: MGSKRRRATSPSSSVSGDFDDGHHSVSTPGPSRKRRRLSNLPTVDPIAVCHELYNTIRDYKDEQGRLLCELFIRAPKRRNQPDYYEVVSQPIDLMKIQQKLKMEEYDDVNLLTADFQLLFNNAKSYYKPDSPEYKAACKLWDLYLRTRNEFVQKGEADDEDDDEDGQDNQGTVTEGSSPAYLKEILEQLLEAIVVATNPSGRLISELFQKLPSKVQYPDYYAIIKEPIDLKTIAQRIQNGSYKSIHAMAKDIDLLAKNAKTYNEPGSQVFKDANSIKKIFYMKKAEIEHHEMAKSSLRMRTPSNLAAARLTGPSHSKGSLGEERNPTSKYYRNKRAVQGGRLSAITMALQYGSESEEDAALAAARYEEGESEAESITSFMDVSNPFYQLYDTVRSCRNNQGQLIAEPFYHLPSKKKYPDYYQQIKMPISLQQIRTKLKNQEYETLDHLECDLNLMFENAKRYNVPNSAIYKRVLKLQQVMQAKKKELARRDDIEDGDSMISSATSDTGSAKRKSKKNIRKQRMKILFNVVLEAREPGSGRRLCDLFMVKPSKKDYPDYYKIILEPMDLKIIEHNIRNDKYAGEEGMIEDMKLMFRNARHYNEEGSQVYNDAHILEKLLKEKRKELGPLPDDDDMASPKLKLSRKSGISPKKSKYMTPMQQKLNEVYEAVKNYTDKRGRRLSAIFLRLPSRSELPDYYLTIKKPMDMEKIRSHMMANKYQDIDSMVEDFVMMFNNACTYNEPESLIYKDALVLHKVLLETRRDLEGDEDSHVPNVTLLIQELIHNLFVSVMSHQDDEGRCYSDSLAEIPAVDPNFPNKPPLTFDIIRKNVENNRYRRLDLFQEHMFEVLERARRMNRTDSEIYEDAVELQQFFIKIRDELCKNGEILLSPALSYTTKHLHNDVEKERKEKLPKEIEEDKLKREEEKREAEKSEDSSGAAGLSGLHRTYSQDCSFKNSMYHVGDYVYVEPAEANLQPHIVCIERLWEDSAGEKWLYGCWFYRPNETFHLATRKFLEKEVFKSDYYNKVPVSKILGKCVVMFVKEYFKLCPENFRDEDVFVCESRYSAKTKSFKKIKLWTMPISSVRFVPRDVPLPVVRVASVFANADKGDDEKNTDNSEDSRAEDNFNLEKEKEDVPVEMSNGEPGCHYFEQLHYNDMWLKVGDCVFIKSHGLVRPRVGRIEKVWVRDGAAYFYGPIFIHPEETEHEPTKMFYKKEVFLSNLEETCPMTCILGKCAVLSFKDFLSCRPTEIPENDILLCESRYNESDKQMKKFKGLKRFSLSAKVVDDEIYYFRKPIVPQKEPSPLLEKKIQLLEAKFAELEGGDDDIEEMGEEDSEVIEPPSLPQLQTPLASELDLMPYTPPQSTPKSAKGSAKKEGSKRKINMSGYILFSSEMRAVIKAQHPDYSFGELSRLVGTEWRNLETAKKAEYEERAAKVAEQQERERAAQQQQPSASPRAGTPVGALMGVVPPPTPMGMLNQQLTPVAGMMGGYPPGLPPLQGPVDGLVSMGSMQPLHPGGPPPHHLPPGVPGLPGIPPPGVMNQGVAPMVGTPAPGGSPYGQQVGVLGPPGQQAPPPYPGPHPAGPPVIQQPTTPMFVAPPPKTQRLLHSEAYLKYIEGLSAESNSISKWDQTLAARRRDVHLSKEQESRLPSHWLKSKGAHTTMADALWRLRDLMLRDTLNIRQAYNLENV
UniProt O43924: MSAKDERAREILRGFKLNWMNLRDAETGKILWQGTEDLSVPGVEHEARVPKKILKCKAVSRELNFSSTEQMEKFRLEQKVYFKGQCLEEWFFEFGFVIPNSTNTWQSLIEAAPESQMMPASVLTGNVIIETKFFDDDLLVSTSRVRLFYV
UniProt Q13608: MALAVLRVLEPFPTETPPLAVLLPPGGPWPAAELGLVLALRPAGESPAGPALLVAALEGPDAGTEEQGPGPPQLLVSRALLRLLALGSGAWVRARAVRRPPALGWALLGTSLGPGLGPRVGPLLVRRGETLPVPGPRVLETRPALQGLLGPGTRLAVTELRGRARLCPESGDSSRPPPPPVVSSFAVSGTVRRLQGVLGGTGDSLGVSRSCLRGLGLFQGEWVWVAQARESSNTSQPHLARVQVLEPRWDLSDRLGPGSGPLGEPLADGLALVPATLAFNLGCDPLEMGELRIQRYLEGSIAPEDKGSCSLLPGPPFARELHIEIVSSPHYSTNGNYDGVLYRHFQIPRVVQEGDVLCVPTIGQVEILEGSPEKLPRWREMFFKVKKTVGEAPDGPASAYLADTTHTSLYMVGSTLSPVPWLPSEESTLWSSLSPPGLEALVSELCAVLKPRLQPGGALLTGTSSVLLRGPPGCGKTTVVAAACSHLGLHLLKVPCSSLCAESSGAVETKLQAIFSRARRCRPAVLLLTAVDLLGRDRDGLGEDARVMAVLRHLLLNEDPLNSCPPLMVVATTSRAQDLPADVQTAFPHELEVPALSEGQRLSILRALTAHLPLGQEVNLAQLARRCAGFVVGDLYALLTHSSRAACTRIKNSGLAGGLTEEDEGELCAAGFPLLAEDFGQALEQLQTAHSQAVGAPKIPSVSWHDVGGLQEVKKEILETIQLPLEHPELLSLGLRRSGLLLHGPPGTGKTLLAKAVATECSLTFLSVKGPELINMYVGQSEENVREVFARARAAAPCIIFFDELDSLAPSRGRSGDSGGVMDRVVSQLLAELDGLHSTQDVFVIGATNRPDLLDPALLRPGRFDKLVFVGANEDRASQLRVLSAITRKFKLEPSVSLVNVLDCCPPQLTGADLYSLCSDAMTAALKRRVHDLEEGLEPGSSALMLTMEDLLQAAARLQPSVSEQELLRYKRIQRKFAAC
UniProt Q9NV79: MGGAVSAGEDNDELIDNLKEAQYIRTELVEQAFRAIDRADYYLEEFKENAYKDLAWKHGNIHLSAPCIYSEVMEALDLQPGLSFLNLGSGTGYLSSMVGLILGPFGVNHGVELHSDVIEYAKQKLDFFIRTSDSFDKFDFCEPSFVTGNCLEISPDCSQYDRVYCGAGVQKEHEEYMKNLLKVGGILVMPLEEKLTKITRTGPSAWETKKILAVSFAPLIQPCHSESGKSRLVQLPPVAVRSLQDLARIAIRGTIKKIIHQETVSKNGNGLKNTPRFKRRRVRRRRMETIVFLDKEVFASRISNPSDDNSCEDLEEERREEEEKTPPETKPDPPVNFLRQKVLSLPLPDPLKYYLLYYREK
UniProt Q9H0J9: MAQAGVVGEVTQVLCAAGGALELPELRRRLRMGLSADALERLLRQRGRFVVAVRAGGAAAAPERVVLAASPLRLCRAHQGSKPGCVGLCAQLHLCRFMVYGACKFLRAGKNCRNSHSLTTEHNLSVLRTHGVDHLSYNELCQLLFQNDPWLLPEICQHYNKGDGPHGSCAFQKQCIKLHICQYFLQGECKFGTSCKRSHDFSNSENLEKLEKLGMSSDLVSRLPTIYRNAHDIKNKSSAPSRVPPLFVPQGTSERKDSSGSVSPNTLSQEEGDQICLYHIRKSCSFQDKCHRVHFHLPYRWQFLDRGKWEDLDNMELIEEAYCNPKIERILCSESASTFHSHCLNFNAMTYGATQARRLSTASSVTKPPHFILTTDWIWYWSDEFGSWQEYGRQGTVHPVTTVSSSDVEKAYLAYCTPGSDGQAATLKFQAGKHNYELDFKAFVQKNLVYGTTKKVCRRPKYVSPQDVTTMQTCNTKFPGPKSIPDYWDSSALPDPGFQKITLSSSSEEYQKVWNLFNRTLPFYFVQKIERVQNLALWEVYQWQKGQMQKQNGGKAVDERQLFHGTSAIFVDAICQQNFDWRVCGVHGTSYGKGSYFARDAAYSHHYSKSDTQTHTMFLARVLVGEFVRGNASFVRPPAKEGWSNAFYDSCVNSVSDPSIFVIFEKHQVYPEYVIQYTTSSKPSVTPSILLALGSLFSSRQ
UniProt P35558, whole entry, looked up: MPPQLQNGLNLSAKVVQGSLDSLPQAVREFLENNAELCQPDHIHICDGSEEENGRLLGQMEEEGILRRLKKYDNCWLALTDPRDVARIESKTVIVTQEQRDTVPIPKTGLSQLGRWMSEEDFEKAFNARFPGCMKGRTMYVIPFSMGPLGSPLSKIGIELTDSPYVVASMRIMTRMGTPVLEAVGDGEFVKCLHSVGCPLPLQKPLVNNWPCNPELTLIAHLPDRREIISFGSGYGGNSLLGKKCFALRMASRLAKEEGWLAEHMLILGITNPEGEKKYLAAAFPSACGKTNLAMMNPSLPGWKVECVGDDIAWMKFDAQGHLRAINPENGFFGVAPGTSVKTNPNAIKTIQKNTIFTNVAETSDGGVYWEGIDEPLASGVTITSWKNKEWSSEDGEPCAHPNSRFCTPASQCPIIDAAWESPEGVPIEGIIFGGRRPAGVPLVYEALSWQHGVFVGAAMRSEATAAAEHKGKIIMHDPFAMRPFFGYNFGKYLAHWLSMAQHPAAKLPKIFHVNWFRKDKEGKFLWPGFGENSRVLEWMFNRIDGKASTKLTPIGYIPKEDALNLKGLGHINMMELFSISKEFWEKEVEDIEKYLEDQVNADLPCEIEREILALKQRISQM
UniProt O00628: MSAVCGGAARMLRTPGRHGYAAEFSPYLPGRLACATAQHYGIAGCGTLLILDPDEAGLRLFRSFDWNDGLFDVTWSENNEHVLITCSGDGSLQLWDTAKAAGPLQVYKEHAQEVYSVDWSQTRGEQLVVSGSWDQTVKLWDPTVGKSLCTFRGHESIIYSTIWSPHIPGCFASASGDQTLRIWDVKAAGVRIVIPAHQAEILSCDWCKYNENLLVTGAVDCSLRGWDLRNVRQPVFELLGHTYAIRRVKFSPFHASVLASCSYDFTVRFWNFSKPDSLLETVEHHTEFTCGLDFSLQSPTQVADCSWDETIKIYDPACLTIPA

compound: C#Cc1cccc(Nc2ncnc3cc(OCCOC)c(OCCOC)cc23)c1 [erlotinib]; assay: log2 fold change, soluble protein after heating vs DMSO (PISA); higher = thermal stabilisation; K562 lysate, 10 uM; active = over 0.2 and 3.5 SD of the protein, either way, in both replicates (recomputed)
Outline: (§1)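 Quantification was by TMTpro 16plex LC-MS/MS with equalised channel sums, applied to the supernatant after 21,000xg for 90 min. Samples were crude K562 extract at 1 mg/mL protein in PBS pH 7.4 with 1 mM MgCl2, treated with 10 μM compound for 30 min, heated for 3 min across 48°C-58°C, pooled and brought to 0.5% NP-40 at 4°C. Values are log-two fold changes in thermal stability relative to solvent controls, from duplicates.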

log2 fold change, inactive:
PCGF6 (UniProt Q9BYE7) 0.039, PCGF1 (UniProt Q9BSM1) 0.073, PARP4 (UniProt Q9UKK3) 0.066, PARPBP (UniProt Q9NWS1) 0.048, PDP1 isoform 2 (UniProt Q9P0J1) 0.028, PCBP2 (UniProt F8VRH0) 0.084, PCGF3 isoform 2 (UniProt Q3KNV8) 0, PBRM1 (UniProt Q86U86) 0.185, PDE6D (UniProt O43924) -0.162, PEX6 (UniProt Q13608) -0.116, PCMTD2 (UniProt Q9NV79) 0.11, PARP12 (UniProt Q9H0J9) 0.172, PDE4DIP (UniProt E9PS60) 0.026

compound: C/C(=N\NC(=O)C1=CC(=CC=C1)S(=O)(=O)N2CCOCC2)/C3=C(C=CC(=C3)Cl)O; assay: as above
Outline: as §1

log2 fold change, inactive:
PCGF6 (UniProt Q9BYE7) 0.033, PCK1 (UniProt P35558) -0.07, PEX7 (UniProt O00628) 0.043, PFN3 (UniProt P60673) -0.231, PEX5 (UniProt J3KPV0) 0.091, PCGF1 (UniProt Q9BSM1) -0.035, PARPBP (UniProt Q9NWS1) 0.055, PCMTD1 (UniProt Q96MG8) -0.42, PEX1 (UniProt O43933) 0.135, PER2 (UniProt O15055) -0.09, PEMT isoform 2 (UniProt Q9UBM1) 0.065, PCNX3 (UniProt Q9H6A9) -0.024, PCMTD2 (UniProt Q9NV79) -0.083, PDE4DIP (UniProt E9PS60) -0.056

compound: C1=CC(=CC=C1C2=NC3=C(N2)C=C(C=C3)C(=O)N)OC4=CC=C(C=C4)Cl; assay: as above
Outline: as §1

log2 fold change, inactive:
PCGF6 (UniProt Q9BYE7) 0.016, PCGF1 (UniProt Q9BSM1) 0.138, PARP4 (UniProt Q9UKK3) -0.02, PARPBP (UniProt Q9NWS1) 0.065, PDP1 isoform 2 (UniProt Q9P0J1) 0.141, PCBP2 (UniProt F8VRH0) -0.182, PCGF3 isoform 2 (UniProt Q3KNV8) 0.01, PBRM1 (UniProt Q86U86) 0.131, PDE6D (UniProt O43924) -0.013, PEX6 (UniProt Q13608) -0.275, PCMTD2 (UniProt Q9NV79) -0.04, PARP12 (UniProt Q9H0J9) -0.075, PDE4DIP (UniProt E9PS60) -0.13

compound: C1=CC2=C(C=CC(=C2)/C=C\3/C(=O)NC(=NCC4=CC=CS4)S3)N=C1; assay: as above
Outline: as §1

log2 fold change, inactive:
PCGF6 (UniProt Q9BYE7) -0.032, PCK1 (UniProt P35558) -0.075, PEX7 (UniProt O00628) 0.012, PFN3 (UniProt P60673) -0.078, PEX5 (UniProt J3KPV0) -0.28, PCGF1 (UniProt Q9BSM1) 0, PARPBP (UniProt Q9NWS1) -0.445, PCMTD1 (UniProt Q96MG8) 0.13, PEX1 (UniProt O43933) -0.009, PER2 (UniProt O15055) -0.03, PEMT isoform 2 (UniProt Q9UBM1) 0.249, PCNX3 (UniProt Q9H6A9) 0.06, PCMTD2 (UniProt Q9NV79) -0.285, PDE4DIP (UniProt E9PS60) 0.044

compound: C1=CC2=NC=CN=C2C=C1/C=C/3\C(=O)NC(=O)S3; assay: as above
Outline: as §1

log2 fold change, inactive:
PCK1 (UniProt P35558) -0.06, PEX7 (UniProt O00628) 0.026, PGD (UniProt K7EPF6) -0.147, PFN1 (UniProt I3L3D5) 0.054, PARP4 (UniProt Q9UKK3) 0.063, PARPBP (UniProt Q9NWS1) -0.01, PEX10 isoform 2 (UniProt O60683) 0.002, PBRM1 (UniProt Q86U86) -0.062, PCNX3 (UniProt Q9H6A9) 0.044, PDE6D (UniProt O43924) 0.021, PEX6 (UniProt Q13608) 0.192, PARP12 (UniProt Q9H0J9) -0.213

compound: C1=CC=C(C=C1)C2=NC(=C(N2)C3=CC=NC=C3)C4=CC(=C(C=C4)Cl)O; assay: as above
Outline: as §1

log2 fold change, inactive:
PCGF6 (UniProt Q9BYE7) -0.006, PEX7 (UniProt O00628) -0.432, PDIK1L (UniProt Q8N165) 0.053, PEX5 (UniProt J3KPV0) -0.167, PFN1 (UniProt I3L3D5) 0.045, PDP1 isoform 2 (UniProt Q9P0J1) 0.077, PCBP2 (UniProt F8VRH0) -0.092, PEX1 (UniProt O43933) -0.134, PBRM1 (UniProt Q86U86) 0.056, PDE6D (UniProt O43924) -0.046, PDE3B (UniProt Q13370) -0.037, PDCD6 isoform 2 (UniProt O75340) 0.006, PARP12 (UniProt Q9H0J9) -0.042
